## Percent effect of library compounds

Source: ChEMBL document CHEMBL3988442, “University of Dundee, Small-Polar-MMV Screening Library” (2021).

Mtb cholesterol medium: 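Phenotypic screen: M. tuberculosis growth, cholesterol and DPPC medium, 4 days; the read-out is not stated. Tested at 50 µM. Higher reads as more growth inhibition (inferred: compounds with an IC50 in retests scored well above the rest). Of about 69,000 compounds tested this way, about 370 (0.54%) reached 50% or more in at least one test.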
Mtb glucose medium: 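Growth of Mycobacterium tuberculosis over 3 days (7H9 medium with glucose and tyloxapol); the read-out is not stated. Compounds at 50 µM. The record gives no direction; compounds that gave an IC50 in retests scored well above the rest, so higher reads as more growth inhibition. Size under these conditions: about 69,000 compounds, about 760 of them at 50% or above in at least one test.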

Each number is a percent effect as filed.
How 0% and 100% were set is not recorded. Most values in the screen are low, and negative values occur.
The compounds are a random part of those screened.
Two or more numbers in one place are separate tests of the same structure; such repeats can differ widely.

compound,Mtb cholesterol medium,Mtb glucose medium
O=C(Nc1cccc(Cn2cccn2)c1)N1CCCC(N2CCCC2)C1 (stereo not drawn),-2.683,0.6286
CC1CCCN(c2ccccc2OCC(=O)NC2CCOCC2)C1 (stereo not drawn),-22.64,-23.89
O=C(CCN1CCCC1)N1CC[C@@H](c2ccc3ccccc3c2)[C@H](O)C1,7.969,23.06 and 31.96
CS(=O)(=O)NCC1(c2ccccc2Br)CC1,-4.68,7.521
Cc1cccc(NCCOc2cccc(C#N)c2)c1C(N)=O,-6.989,-22.38
Cn1ccnc1C1CCN(S(=O)(=O)c2ccc3[nH]c(=O)[nH]c3c2)CC1,-23.4,-28.33
CC(C)NC(=O)N1CCOC2(CCCN(c3ncccc3F)C2)C1.O=C(O)C(F)(F)F (stereo not drawn),2.814 and 4.87,19.22
CC(C)CN1Cc2cccc(NC(=O)Cc3ccon3)c2C1,-8.328,16.85
COc1ccc(CNCCc2cccc(C(N)=O)c2)cc1C,-22.52,-22.87 and -3.25
CC(Cn1cccn1)NC(=O)c1cc(C2CC2)nc2c1cnn2C (stereo not drawn),-3.305,1.408 and 3.123
Cc1ccc(OCCC(=O)NC2CCc3nc(C)cn3C2)cc1 (stereo not drawn),9.581,-6.609 and 12.1
Cc1cc(C)c2ncn(CC(C)(C)CO)c(=O)c2c1,-0.1792,21.88
Cn1ccnc1SCCNC(=O)CC1CCc2ccccc21 (stereo not drawn),-13.75,3.591
O=C(O)C(F)(F)F.[H][C@@]12COC[C@]1(c1nc(C)no1)CN(C(=O)CN(C)C)C2,12.3,25.42
COc1ccc(CCN(C)CCS(=O)(=O)c2ccc(Cl)cc2)cc1OC,18.14,46.48
Cc1cc(Cn2cc(C#N)c(=O)c3ccccc32)no1,-32.41,-5.484 and -54.37
CCc1ccc(CN2CCC(=O)N(CC3CC3)C(C(C)C)C2)nc1 (stereo not drawn),-3.197,-6.679
O=C(O)C(F)(F)F.O=C(O)C(F)(F)F.[H][C@@]12CN(CC3CCOCC3)C[C@]1([H])OCCN2CC(=O)NC,-3.202,-21.51 and -8.656
COC(=O)CC1C(=O)NCCN1c1nc2c(s1)c(C)nn2C (stereo not drawn),-24.28,-27.47
CCc1nnc(CN2CC(n3cccn3)C2)o1,-1.636,-10.05
CN(C)C(=O)COCc1ncn2c1CN(c1ncc(F)cn1)CCC2,-17.22,-37.38
Cc1nccc(C2CN(Cc3cc[nH]n3)CCO2)n1 (stereo not drawn),-5.269,-8.555
Cc1c(CN2CCc3[nH]cnc3C2C(=O)O)[nH]c2ccc(F)cc12 (stereo not drawn),2.946,36.9 and 17.22
O=C(O)C(F)(F)F.[H][C@@]12CN(CC3CCOCC3)C[C@]1([H])C(=O)N(Cc1cccc(F)c1)C2,-9.776 and -6.359,-4.671 and -25.81
COCC(=O)N1CCC(=O)N(C2CCCC2)Cc2ccccc21,-7.871,2.932
CCc1noc(CN2CCN(CC(O)c3ccccc3)CC2)n1 (stereo not drawn),-16.49,0.7791
COC(=O)c1cccc(C(=O)N2CCN(c3cc(Cl)ccc3C)CC2)n1,-3.31,19.54
c1ccc(-c2ccc(CN3CCOC(Cn4cncn4)C3)cc2)cc1 (stereo not drawn),22.96,15.97
COc1ccc(C(=O)c2cnc(C(C)C)n2C)cc1,-4.094,8.744 and -7.186
CN(C)CCn1c(=O)n(C)c(=O)c2ccccc21.Cl,-21,-11.91
O=C(c1cc(Cl)cc2cccnc12)N1CCN(CCO)CC1,-10.48,-12.49
O=C(O)C(F)(F)F.O=C(O)C(F)(F)F.c1cc(C2CC2)n2cnc(C3CN(Cc4ccncc4)CCO3)c2c1 (stereo not drawn),7.7,1.736 and 2.669
Cc1ccc(OCC(=O)NC2CC2)nc1,10.47 and -8.199,4.819
Cc1noc(NCc2cn(C)nc2-c2cccnc2)n1,8.194,7.269
CC(C)Nc1ncnc2c1CCN(C(=O)NCc1cccnc1)CC2.O=C(O)C(F)(F)F,-0.7272,-4.906 and 2.11
CC(Cn1ccnc1)NC(=O)NCCc1cccnc1 (stereo not drawn),14.1,25.12
O=C(O)C(F)(F)F.[H][C@@]12CCCO[C@]1([H])[C@H](N(C)C)CN2C(=O)Cc1ccccc1,-34.73,-39.54
CCC(=O)N1CCN(c2cc(-n3cnc(C)c3C)nc(C)n2)CC1,2.408 and -0.6451,39.38
O=S(=O)(N1CCCC1)N1CCN(CC2CCCO2)CC1 (stereo not drawn),21.82,-2.604 and -1.842
C[C@@H](NC(=O)c1cccn1C)c1c(-c2ccc(Cl)cc2)noc1C(=O)O,16.45,-6.123 and -2.723
COC(=O)NCCC(=O)NC(C)Cc1ccccc1Br (stereo not drawn),20.53,29.94
CCC(CO)N(Cc1ccccn1)C(=O)c1ccc(=O)[nH]c1 (stereo not drawn),10.62 and -4.908,10.97
Fc1cnc(N2CCCC3(COCCN(c4nccs4)C3)C2)nc1.O=C(O)C(F)(F)F.O=C(O)C(F)(F)F (stereo not drawn),-12.32,-5.842
O=C(CCCSc1ccc(NC(=O)C2CC2)nn1)NCC1CCCO1 (stereo not drawn),-11.1,0.5442
CC(NC(=O)NCC1(c2ccccc2)CCC1)c1nncn1C (stereo not drawn),-19.93,-11.59
COc1ccnc(N(C)Cc2ccccc2O)n1,6.657 and 20.06,12.72 and 22.94
CN(c1ccncn1)C1CC2(CCN(C(=O)c3cccs3)C2)C1 (stereo not drawn),21.34,33.04
O=C(NCC(F)(F)F)c1coc(COc2cccc(F)c2)n1,4.291 and 8.622,-0.1622 and 25.97
CS(=O)(=O)N[C@@H]1CCO[C@]2(CCN(C(=O)c3cnccn3)C2)C1,-7.866,-0.004661
O=C(O)C(F)(F)F.[H][C@]12CN(C(=O)c3cc(C)ccn3)C[C@@]1([H])OCCN(S(C)(=O)=O)C2,-11.16,6.662 and -1.096
COCC1CC2(CCN(S(=O)(=O)C3CC3)CC2)CN1c1ncccn1.O=C(O)C(F)(F)F (stereo not drawn),-36.99,-79.6 and 1.971
[H][C@@]12OCCN(C(=O)COc3ccc(C)cc3)[C@@]1([H])CC[C@H]2OC,6.03,13.82
Nc1c(N2CCCCC2)ncnc1N1CCOCC1,-14.51,3.164
COc1cnc(N2CCCN(Cc3ccc(F)cc3)CC2)nc1,-6.3,-5.69
c1cnn(CC2CN(Cc3nnc(C4CC4)o3)CCO2)c1 (stereo not drawn),0.1715,-14.9
CC1CCN(Cn2nc(-c3ccc(F)cc3)oc2=O)CC1,-31.52,-28.8
Cc1noc([C@@H]2C[C@H](NC(=O)Nc3cccc(F)c3)CN2C)n1,-21.31,0.08178 and -13.41
CCN(CC)S(=O)(=O)CC(=O)Nc1ccsc1,-12.4,-0.711 and -24.78
OCCN1CCN(CC(O)c2cc(Cl)ccc2Cl)CC1 (stereo not drawn),-22.84,2.643
Cc1cccc(C2CCCN2S(=O)(=O)N(C)C)n1 (stereo not drawn),-9.674,37.8
O=C(c1ccco1)N1CCc2onc(Cn3cccn3)c2C1,-10.8,-1.893
CCC(NC(=O)c1cccc2cc[nH]c12)C(=O)N1CCOCC1 (stereo not drawn),-0.9064,3.787 and -25.33
Cc1ccc(CN2CCN(Cc3ccncc3)CC2=O)cc1,13.39 and -1.537,12.09
O=C(O)C(F)(F)F.O=c1ccc2c(n1CC1CC1)CCC(NCc1cccs1)C2 (stereo not drawn),-29.29,-20.03
CNC(=O)c1ccc2c(c1O)OC(C)(C)C2,-10.75,23.43
CC(C)N(Cc1ccc(C#N)cc1)C(=O)Nc1ccncc1,-1.659,-9.877
Cc1ccc2c(c1)c(Sc1ccccc1)c(CC(=O)O)n2C,-3.776,-28.91 and -1.268
Cc1ccc(OCc2nc(CNCCn3cccn3)cs2)cc1,18.32,17.48 and -5.14
CC(NC(=O)CCc1nc(C(C)(C)C)no1)c1nnc2n1CCC2 (stereo not drawn),-4.975,-0.8356 and 1.617
N#Cc1cccc(N2CCCC3(CN(C(=O)NC4CC4)CCO3)C2)c1 (stereo not drawn),-17.98,-23.17 and -3.932
O=C(O)C(F)(F)F.[H][C@@]12CCN(C(=O)Cc3ccccc3)CC[C@]1(C(=O)N(C)C)CCN2CC,7.07,-6.005
N#Cc1c2n(c3c(=O)[nH]cnc13)CCCC2,-4.661,-5.795
Cc1ccoc1-c1nnc(CNCCn2cccn2)o1,6.157,9.615
Cc1csc(NC(=O)c2cccnc2N2CCOCC2)n1,17.06,22.45
CCCc1noc(C2CCN(S(=O)(=O)c3cccs3)CC2)n1,35.55,49.68
CCc1ccc(-c2cn3c(C(=O)NCC(C)C(=O)NC)csc3n2)cc1 (stereo not drawn),-16.63 and 4.389,19.76
CS(=O)(=O)c1cccc(OCC(=O)N2CCCC2c2ccc[nH]2)c1 (stereo not drawn),-1.083,10.05
CN(C)c1ccc(CNC(=O)Nc2ccc(S(=O)(=O)C(F)F)cc2)cc1,12.61,17.8
O=C(C1CCCO1)N1CCc2onc(-c3ccc(Cl)cc3)c2C1 (stereo not drawn),1.399,30.77
Cc1cnn(CCNCc2csc(C)n2)c1,-19.01,-2.436
CN1CCOC(C(=O)N2CCCC(C)(C)CC2)C1 (stereo not drawn),2.685,-20.53
Cc1cc(C)cc(NCCC(=O)NC2CCN(C(=O)C3CC3)CC2)c1,2.496,-1.284 and -16.44
Cn1ccnc1CN1CCCN(C(=O)COC2CCCC2)CC1,-1.687,-17.85

The last 6 entries again:

{"compound": "CN(C)c1ccc(CNC(=O)Nc2ccc(S(=O)(=O)C(F)F)cc2)cc1", "Mtb cholesterol medium": 12.61, "Mtb glucose medium": 17.8}
{"compound": "O=C(C1CCCO1)N1CCc2onc(-c3ccc(Cl)cc3)c2C1", "stereo": "stereo not drawn", "Mtb cholesterol medium": 1.399, "Mtb glucose medium": 30.77}
{"compound": "Cc1cnn(CCNCc2csc(C)n2)c1", "Mtb cholesterol medium": -19.01, "Mtb glucose medium": -2.436}
{"compound": "CN1CCOC(C(=O)N2CCCC(C)(C)CC2)C1", "stereo": "stereo not drawn", "Mtb cholesterol medium": 2.685, "Mtb glucose medium": -20.53}
{"compound": "Cc1cc(C)cc(NCCC(=O)NC2CCN(C(=O)C3CC3)CC2)c1", "Mtb cholesterol medium": 2.496, "Mtb glucose medium": "-1.284 and -16.44"}
{"compound": "Cn1ccnc1CN1CCCN(C(=O)COC2CCCC2)CC1", "Mtb cholesterol medium": -1.687, "Mtb glucose medium": -17.85}